This note sets out measurements from the supplement of paper PMC10849652.

Amino acid sequences for entries named in this document (tags omitted). A change or cut given only in a name is not applied to a line headed by its entry.
UniProt O43432, whole entry, looked up: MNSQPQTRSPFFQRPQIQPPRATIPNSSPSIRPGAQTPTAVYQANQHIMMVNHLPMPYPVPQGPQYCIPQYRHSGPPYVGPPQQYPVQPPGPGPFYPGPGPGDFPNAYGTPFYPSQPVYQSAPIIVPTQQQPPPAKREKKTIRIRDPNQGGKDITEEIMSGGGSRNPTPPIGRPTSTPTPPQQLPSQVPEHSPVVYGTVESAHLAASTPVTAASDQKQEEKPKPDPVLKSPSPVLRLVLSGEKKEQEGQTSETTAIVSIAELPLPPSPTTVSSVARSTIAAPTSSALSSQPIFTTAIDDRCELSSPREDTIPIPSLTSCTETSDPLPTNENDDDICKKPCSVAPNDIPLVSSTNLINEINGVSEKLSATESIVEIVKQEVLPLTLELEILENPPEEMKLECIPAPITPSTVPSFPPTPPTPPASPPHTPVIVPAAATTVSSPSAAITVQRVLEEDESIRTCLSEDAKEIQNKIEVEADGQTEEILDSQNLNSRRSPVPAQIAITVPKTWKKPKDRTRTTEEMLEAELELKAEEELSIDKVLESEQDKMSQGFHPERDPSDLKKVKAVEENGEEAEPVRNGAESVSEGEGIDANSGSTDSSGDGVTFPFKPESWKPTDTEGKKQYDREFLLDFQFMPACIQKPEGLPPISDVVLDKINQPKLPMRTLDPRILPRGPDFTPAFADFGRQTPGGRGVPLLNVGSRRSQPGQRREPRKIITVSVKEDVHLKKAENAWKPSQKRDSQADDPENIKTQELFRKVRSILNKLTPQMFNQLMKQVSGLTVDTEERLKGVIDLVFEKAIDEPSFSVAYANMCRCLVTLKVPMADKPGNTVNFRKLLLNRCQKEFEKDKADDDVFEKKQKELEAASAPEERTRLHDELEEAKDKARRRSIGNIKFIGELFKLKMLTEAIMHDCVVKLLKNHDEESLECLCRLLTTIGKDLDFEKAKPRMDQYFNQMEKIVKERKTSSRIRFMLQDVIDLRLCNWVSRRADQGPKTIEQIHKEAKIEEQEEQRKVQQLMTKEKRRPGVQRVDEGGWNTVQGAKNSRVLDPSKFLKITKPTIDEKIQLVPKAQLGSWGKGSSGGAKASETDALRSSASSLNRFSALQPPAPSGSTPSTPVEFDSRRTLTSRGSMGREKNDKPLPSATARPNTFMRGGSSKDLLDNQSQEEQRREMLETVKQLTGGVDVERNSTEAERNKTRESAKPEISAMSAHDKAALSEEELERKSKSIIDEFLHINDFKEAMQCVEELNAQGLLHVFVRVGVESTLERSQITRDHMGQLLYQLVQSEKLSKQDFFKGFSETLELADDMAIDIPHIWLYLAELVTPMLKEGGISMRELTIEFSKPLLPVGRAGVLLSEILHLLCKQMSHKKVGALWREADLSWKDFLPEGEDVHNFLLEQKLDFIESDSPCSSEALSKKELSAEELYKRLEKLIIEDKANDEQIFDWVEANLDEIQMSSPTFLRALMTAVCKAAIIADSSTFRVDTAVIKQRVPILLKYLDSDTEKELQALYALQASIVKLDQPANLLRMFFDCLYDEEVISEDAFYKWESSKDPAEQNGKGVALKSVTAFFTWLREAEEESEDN
UniProt O75822, whole entry, looked up: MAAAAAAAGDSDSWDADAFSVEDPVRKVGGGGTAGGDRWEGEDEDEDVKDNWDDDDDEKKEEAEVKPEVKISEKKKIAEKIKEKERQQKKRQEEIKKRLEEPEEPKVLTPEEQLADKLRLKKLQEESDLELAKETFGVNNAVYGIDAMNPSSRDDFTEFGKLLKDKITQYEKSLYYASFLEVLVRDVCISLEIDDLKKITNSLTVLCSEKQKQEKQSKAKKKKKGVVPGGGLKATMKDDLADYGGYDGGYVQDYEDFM
UniProt P19525: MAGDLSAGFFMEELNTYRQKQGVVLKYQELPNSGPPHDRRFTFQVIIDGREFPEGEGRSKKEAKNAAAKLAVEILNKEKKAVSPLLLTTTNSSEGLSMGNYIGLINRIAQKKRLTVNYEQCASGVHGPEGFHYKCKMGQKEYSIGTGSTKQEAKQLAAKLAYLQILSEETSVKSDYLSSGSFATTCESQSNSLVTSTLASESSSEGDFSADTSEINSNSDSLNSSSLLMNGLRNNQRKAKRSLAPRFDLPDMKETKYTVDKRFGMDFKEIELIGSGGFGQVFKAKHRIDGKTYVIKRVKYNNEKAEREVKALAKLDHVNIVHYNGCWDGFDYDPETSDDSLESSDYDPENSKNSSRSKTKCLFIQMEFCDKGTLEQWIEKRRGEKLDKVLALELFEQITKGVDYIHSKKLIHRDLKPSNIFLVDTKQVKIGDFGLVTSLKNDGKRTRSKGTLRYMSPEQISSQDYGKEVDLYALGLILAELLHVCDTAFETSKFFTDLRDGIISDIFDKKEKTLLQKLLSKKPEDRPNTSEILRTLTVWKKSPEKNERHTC
UniProt P41091, whole entry, looked up: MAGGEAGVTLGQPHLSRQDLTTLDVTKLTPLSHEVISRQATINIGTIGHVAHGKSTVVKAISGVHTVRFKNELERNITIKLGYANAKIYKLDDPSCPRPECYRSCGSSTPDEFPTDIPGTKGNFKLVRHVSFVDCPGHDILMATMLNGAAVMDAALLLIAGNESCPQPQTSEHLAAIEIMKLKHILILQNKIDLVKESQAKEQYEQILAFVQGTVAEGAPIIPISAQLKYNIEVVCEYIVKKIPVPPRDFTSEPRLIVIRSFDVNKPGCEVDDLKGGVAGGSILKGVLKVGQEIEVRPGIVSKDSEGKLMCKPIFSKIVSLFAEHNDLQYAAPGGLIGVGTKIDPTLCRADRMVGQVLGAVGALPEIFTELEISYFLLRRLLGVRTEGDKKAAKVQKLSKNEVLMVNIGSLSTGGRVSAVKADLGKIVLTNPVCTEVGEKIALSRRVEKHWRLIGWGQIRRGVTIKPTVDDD
UniProt P18146, whole entry, looked up: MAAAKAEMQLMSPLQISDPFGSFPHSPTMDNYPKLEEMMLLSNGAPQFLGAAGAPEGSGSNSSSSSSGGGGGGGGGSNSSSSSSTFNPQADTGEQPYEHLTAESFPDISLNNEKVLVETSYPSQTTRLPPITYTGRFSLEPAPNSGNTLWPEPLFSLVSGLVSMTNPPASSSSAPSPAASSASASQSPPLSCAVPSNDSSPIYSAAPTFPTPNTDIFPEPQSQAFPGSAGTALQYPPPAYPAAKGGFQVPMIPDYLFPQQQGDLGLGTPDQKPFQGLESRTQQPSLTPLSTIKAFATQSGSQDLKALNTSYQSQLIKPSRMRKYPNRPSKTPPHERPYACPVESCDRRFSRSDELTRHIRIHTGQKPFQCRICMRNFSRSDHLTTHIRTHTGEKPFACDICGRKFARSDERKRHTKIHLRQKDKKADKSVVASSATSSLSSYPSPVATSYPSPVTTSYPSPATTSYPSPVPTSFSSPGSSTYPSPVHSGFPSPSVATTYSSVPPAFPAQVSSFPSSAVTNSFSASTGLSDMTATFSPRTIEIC
UniProt P55199: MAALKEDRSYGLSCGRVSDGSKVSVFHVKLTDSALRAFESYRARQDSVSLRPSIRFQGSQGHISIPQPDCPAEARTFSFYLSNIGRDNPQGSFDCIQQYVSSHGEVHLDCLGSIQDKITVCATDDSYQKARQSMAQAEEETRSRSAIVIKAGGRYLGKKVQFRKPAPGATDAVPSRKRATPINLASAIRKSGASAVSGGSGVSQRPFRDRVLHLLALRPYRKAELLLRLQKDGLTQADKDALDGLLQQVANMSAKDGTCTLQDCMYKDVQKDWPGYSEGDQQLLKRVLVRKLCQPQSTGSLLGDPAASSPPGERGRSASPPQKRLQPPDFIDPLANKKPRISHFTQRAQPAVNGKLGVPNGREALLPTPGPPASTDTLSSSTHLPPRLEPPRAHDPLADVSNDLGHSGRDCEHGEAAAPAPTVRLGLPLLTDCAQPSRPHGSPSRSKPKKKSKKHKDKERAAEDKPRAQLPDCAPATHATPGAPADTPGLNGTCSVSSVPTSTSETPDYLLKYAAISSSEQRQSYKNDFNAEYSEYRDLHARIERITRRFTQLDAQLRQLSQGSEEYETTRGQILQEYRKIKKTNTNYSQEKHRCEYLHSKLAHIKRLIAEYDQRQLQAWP
UniProt Q9H777: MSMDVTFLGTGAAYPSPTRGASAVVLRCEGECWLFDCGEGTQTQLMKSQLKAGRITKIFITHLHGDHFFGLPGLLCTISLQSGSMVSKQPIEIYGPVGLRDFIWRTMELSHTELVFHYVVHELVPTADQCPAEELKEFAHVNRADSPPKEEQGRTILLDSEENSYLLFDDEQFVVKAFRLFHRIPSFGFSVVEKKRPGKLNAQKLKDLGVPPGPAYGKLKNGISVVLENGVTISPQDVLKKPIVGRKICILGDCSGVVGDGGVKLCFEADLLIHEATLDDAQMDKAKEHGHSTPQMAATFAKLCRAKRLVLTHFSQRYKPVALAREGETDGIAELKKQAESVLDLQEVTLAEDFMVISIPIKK
UniProt O60573: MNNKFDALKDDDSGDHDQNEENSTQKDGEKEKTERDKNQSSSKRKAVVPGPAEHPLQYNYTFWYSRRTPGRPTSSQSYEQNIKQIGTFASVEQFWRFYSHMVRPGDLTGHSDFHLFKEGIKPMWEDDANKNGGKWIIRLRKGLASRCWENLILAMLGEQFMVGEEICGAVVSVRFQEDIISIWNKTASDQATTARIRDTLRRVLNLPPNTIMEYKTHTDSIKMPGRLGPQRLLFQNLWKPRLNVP
UniProt O75071: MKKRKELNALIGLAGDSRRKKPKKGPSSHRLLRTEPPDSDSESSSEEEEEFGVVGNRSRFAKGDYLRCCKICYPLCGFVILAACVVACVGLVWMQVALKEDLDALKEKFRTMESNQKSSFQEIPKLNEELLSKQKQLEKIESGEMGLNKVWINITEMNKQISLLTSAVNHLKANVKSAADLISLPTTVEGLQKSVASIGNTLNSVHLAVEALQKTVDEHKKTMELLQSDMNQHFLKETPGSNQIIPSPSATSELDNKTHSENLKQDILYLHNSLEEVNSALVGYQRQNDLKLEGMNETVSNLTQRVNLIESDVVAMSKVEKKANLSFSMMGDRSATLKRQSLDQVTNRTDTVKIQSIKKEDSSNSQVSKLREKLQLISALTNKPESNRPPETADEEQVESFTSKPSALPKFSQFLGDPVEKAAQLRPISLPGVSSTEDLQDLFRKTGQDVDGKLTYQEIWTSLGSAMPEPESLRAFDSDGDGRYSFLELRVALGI
UniProt Q9GZT9: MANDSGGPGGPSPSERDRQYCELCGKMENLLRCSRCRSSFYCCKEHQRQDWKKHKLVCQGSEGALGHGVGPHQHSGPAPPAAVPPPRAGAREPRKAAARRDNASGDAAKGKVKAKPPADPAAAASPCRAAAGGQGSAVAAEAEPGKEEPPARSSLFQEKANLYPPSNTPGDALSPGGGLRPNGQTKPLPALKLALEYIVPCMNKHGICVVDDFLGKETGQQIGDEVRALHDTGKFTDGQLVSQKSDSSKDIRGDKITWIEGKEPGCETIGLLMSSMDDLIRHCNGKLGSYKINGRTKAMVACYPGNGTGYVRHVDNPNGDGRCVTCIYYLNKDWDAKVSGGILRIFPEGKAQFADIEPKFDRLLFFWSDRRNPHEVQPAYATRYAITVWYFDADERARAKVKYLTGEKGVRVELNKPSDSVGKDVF
UniProt O75354: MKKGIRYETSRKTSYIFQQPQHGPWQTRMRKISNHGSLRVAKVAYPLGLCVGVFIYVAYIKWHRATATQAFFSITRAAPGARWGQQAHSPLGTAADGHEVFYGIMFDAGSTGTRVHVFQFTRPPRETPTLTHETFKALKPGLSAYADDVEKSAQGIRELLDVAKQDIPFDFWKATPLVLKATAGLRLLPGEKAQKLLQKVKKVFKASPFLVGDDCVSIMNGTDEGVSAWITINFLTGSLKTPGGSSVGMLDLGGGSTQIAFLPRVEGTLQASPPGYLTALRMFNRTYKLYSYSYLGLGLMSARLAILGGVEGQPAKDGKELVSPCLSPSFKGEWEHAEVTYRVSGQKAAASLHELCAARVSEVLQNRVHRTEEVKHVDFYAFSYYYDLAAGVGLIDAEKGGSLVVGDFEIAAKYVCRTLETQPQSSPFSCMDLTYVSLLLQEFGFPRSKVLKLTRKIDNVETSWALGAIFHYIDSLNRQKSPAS
UniProt Q12805: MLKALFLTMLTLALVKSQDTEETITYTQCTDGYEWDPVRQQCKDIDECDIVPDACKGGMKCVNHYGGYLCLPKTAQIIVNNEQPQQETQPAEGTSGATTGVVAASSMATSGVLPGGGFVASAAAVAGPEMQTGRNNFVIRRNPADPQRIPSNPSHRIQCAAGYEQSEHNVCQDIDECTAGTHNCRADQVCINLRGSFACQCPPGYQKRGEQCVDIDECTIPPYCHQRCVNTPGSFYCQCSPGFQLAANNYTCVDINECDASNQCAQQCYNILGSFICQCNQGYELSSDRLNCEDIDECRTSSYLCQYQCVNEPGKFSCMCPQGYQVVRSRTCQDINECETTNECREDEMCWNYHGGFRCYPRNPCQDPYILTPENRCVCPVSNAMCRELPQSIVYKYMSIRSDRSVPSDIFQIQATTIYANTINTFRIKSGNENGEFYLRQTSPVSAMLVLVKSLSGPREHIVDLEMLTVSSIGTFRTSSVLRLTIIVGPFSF

Some of the results follow.

Compound in the experiment: C1=CC(=CC=C1C2=NC3=C(N2)C=C(C=C3)C(=O)N)OC4=CC=C(C=C4)Cl
Kind of experiment: log2 fold change, soluble protein after heating vs DMSO (PISA); higher = thermal stabilisation; K562 cells, 10 uM, 30 min; active = over 0.2 and 3.5 SD of the protein, either way, in both replicates (recomputed). Put shortly:
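K562 cells at 2×10^6 cells/mL were treated for 30 min with 10 μM compound, and aliquots were heated for 3 min over 48°C-58°C before pooling. Extraction used PBS with 0.5% NP-40 at 4°C, and soluble protein was the supernatant after 21,000xg for 90 min, measured by TMTpro 16plex LC-MS/MS with channel sums equalised. Thermal stability values, relative to control samples and from duplicates, are log2 fold changes.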
For EIF4G3 isoform 3 (UniProt O43432), the log2 fold change was inactive: -0.083.

Consider EIF3J isoform 2 (UniProt O75822), for which the log2 fold change was inactive: 0.005.

As for EEF1AKNMT (UniProt Q8N6R0), the log2 fold change was inactive: -0.022.

As for EIF2AK1 (UniProt Q9BQI3), the log2 fold change is inactive: 0.

As to EIF2B4 (UniProt Q9UI10), the log2 fold change was inactive: 0.046.

Consider EIF3G (UniProt K7ER90), for which the log2 fold change was inactive: 0.004.

As for EED, A0A5F9ZI63, the log2 fold change was inactive: 0.028.

EIF1B (UniProt O60739): the log2 fold change was inactive: -0.048.

EOGT (UniProt Q5NDL2): the log2 fold change was inactive: 0.002.

For the target EIF2AK2 (UniProt P19525), the log2 fold change is inactive: 0.216.

As to ELOVL1 (UniProt Q9BW60), the log2 fold change is inactive: -0.059.

As to EIF2S3 (UniProt P41091), the log2 fold change is inactive: -0.004.

Turning to EGR1 (UniProt P18146), the log2 fold change was inactive: 0.176.

On to ELL (UniProt P55199), for which the log2 fold change is inactive: -0.06.

Take EEF1G isoform 2 (UniProt P26641): the log2 fold change was inactive: -0.016.

In the case of ELAC1 (UniProt Q9H777), the log2 fold change is inactive: -0.061.

Consider EIF4E2 (UniProt O60573), for which the log2 fold change was inactive: -0.045.

Regarding EFCAB14 (UniProt O75071), the log2 fold change was inactive: 0.024.

For EGLN1 (UniProt Q9GZT9), the log2 fold change is inactive: -0.035.

As for ENTPD6 (UniProt O75354), the log2 fold change is inactive: 0.048.

Regarding EFEMP1 (UniProt Q12805), the log2 fold change is inactive: 0.137.

Take ELOVL7 (UniProt A1L3X0): the log2 fold change was inactive: 0.009.

Take EFL1 (UniProt Q7Z2Z2): the log2 fold change was inactive: 0.002.
